In patent US4108987A (Merck & Co., Inc., priority 1977, dated 1978):

Test: general procedure: Boc solid-phase peptide synthesis; -O-CH2-phi-resin; diphenylphosphoryl azide (cyclisation)
Conditions: whole synthesis, scale 75 mmole

Substance: PEPTIDE1{P.[dF].P.[dF].P.[dF]}$PEPTIDE1,PEPTIDE1,1:R1-6:R2$$$V2.0
- isolated mass (run 1): 32.8 grams
- isolated mass (run 2): 6.24 g

Strings that start with PEPTIDE1 are HELM notation: dots part the residues, brackets hold end groups and non-standard residues.
